From paper PMC8799570
These are yes or no findings as the source states them, for the method shown. For some assays here: In cells and extracts the contact can be indirect. Some binding calls cover weakened binding; strength is not graded here.

Tests used:
[1] = biological target: T1, TRAF2 (human (endogenous in AGS)) (UniProt Q12933); experiment: co-IP
T1 sequence: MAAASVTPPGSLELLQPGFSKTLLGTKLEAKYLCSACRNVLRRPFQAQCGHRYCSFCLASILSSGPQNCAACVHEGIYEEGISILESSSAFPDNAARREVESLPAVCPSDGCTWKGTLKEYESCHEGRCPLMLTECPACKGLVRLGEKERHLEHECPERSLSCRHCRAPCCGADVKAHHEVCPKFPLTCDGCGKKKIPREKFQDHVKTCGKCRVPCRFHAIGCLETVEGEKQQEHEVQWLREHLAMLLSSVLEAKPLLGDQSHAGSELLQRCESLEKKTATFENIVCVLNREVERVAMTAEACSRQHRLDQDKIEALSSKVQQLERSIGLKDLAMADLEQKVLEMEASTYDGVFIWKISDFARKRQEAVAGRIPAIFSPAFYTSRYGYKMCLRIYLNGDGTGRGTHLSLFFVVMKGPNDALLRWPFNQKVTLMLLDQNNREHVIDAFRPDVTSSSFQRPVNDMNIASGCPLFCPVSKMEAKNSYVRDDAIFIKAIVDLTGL

[2] = biological target: T2, recombinant human A20 protein (human) (UniProt P21580); experiment: co-IP; 50 ng recombinant human A20 and TIFA combined in 500 μl PBS for 1 h at 4 °C, then IP with 1 µg antibody against A20 or isotype-matched IgG for 1 h, immunoblot; both purified
T2 sequence: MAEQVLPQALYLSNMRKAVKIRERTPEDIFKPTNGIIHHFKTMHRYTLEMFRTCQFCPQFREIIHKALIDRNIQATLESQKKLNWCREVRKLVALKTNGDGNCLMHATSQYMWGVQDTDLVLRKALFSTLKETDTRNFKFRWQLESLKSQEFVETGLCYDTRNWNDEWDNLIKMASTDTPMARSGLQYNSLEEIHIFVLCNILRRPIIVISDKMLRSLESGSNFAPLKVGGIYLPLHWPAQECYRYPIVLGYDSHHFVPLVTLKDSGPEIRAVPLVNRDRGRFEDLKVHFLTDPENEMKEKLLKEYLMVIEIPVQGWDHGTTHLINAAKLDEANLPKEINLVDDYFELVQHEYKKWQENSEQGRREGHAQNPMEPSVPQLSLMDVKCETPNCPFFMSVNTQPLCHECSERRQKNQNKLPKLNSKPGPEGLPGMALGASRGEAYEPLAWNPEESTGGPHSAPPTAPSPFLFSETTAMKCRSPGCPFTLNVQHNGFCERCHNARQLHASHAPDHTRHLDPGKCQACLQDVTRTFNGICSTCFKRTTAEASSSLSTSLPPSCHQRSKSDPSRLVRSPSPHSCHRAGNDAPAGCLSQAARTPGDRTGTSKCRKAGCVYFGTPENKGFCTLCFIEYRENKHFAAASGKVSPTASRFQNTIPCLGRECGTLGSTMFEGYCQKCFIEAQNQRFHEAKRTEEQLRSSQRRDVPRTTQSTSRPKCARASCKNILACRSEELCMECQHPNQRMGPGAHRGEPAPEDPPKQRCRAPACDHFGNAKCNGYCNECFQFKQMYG

B1: tumor necrosis factor receptor-associated factor-interacting protein with forkhead-associated domain (TIFA) (protein, UniProt Q96CG3 1-184)
chain: MTSFEDADTEETVTCLQMTVYHPGQLQCGIFQSISFNREKLPSSEVVKFGRNSNICHYTFQDKQVSRVQFSLQLFKKFNSSVLSFEIKNMSKKTNLIVDSRELGYLNKMDLPYRCMVRFGEYQFLMEKEDGESLEFFETQFILSPRSLLQENNWPPHRPIPEYGTYSLCSSQSSSPTEMDENES
In the case of B1, the binding [1] is reported as “binds”.

B2: recombinant human TIFA protein (protein, UniProt Q96CG3 1-184)
chain: B1 chain
B2 was tested, and the binding [2] was “binds”.
